Measurements taken from PubChem BioAssay AID662 (National Center for Advancing Translational Sciences (NCATS), 2007).
Several values for one entry are separate records, joined by “and”; a condition that tells them apart may be missing. Identical values can stand only once. The list shows a part of the results. Further columns of the screen follow, without active or inactive calls. Compounds called inactive in the main read-out are mostly missing here. Potencies come from curve fits of mixed quality, noted in brackets. Numbered stars: 1 amine (or outer) side, 2 acyl side, 3 side chain; on linkers, the order of the positions; unused ones are H or OH. Bridge positions count the residues as written; N and C are the ends. Square brackets hold non-standard residues; d marks the D form. Peptide text beside a SMILES is read from it. I, II: the chains in the order shown. Actinocin(9to1) = Cc1c2oc3c(C)ccc(C(=O)[*:1])c3nc-2c(C(=O)[*:2])c(N)c1=O; aThr = C[C@H](O)[C@H](N)C(=O)O; NMeV = CN[C@H](C(=O)O)C(C)C; Sar = CNCC(=O)O

Experiment: Cell signaling CRE-BLA (Fsk stim)
Conditions: CHO CRE-bla reporter (cAMP response element driving beta-lactamase), forskolin EC10, beta-lactamase ratio; measured here: 460 nm blue channel
Procedure, shortened: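 CRE-bla CHO cells stimulated with EC10 NKH 477 (water-soluble forskolin) and compound titrations, 3 h at 37C; beta-lactamase read with CCF4 after 2 h at room temperature. Activity from 460/530 nm emission ratio, AC50 values for positive or negative modulation.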

Structure (SMILES)	AC50
Cc1cc(N2C(=O)C3CC=CCC3C2=O)cc(C)c1Br (stereo not given)	15.8 µM [rising, single point]
Cc1oc(-c2ccc(Cl)cc2)nc1CN1CCC(C(=O)NCc2cccnc2)CC1	5.01 µM [falling, single point]
Cc1cc(NCCN2CCOCC2)n2c(nc3ccccc32)c1C#N	3.98 µM [rising, full curve]
Cc1cc(C(=O)OCC(=O)Nc2cc(C(F)(F)F)ccc2N2CCOCC2)c(C)o1	12.6 µM [rising, partial curve]
COc1ccc(-c2nnc(SCC(=O)Nc3sc4c(c3C#N)CCC4)n2CC2CCCO2)cc1 (stereo not given)	10 µM [rising, partial curve]
COc1cccc(NC(=O)CSc2nc3n[nH]c(C)c3c(=N)n2-c2cccc(OC)c2)c1	0.2 µM [rising, full curve, poor fit]
CC1=C(CC(=O)O)c2cc(F)ccc2/C1=C\c1ccc(S(C)=O)cc1 (stereo not given)	12.6 µM [falling, single point]
O=c1cnc2cnc(N3CCOCC3)nc2n1C1CC1	0.631 µM [rising, single point]
Cc1ccc(-n2c(=O)[nH]cc(C(=O)Nc3ccc4c(c3)OCCO4)c2=O)cc1	25.1 µM [rising, single point]
COc1ccc(CCNS(=O)(=O)c2ccc3c(c2)CCN3C(=O)C2CC2)cc1OC	10 µM [rising, partial curve]
O=C(O)c1ccc(N2CCCCCC2)c(N2C(=O)c3ccccc3C2=O)c1	0.398 µM [rising, full curve]
Cc1cccc(N2CCN(C(=O)COc3cc(=O)n(C)c4ccccc34)CC2)c1C	7.94 µM [rising, partial curve]
N#CCCn1c(=O)c(-c2ccccc2)nc2cnc(OCc3ccccc3)nc21	12.6 µM [rising, single point]
c1ccc(-n2cnnc2SCc2cn3ccsc3n2)cc1	3.16 µM [falling, single point]
CCN1C(=O)C2(Nc3ccccc3-c3nc4ccccc4n32)c2cc(OC)ccc21 (stereo not given)	15.8 µM [rising, partial curve]
Oc1ccccc1NCC(O)Cn1ccc2ccccc21 (stereo not given)	7.94 µM [falling, partial curve]
C=CCn1c(SCC(=O)c2ccc(CNC(C)=O)o2)nc2scc(C3CC3)c2c1=O	10 µM [rising, partial curve]
OCCNc1nc2ccccc2n1-c1ccccc1	0.00398 µM [falling, full curve, poor fit]
CCOC(=O)c1ccccc1NC(=O)c1ccc(NS(C)(=O)=O)cc1	12.6 µM [rising, partial curve]
CCC(Sc1nnnn1-c1ccccc1)C(=O)Nc1nc2ccccc2s1 (stereo not given)	10 µM [falling, partial curve]

Structure (SMILES)	AC50
Cc1nc2cncnc2n(Cc2ccc(F)cc2)c1=O	12.6 µM [rising, single point]
COCCCNC(=O)Cn1cc(C(C)=O)c2ccccc21	0.00794 µM [falling, full curve]
Cc1sc(NC(=O)c2cccs2)c(C(N)=O)c1C	20 µM [rising, single point]
COc1cccc(Nc2ncc3nc(-c4cccs4)c(=O)n(CCC#N)c3n2)c1	10 µM [rising, partial curve]
C=CCN1C(=O)/C(=C2\SC(N3CCOCC3)=NC2=O)c2cc(Br)ccc21	0.794 µM [rising, full curve]
COc1ccc(S(=O)(=O)NC2(C(F)(F)F)N=C3SCCN3C2=O)cc1 (stereo not given)	6.31 µM [rising, partial curve]
O=C(Nc1ccccc1)c1cc([N+](=O)[O-])ccc1Cl	25.1 µM [falling, partial curve] and 15.8 µM [falling, partial curve, poor fit]
O=C(Nc1cccnc1)c1noc2c1CCCC2	2 µM [rising, full curve, poor fit]
O=c1cnc2cnc(OCc3ccccc3)nc2n1CCc1ccccc1	25.1 µM [rising, partial curve]
CCN1CCCC1CN=Cc1c(O)n(-c2ccccc2)c(=O)c2ccccc12 (stereo not given)	15.8 µM [rising, single point]
CCOC(=O)c1sc(=S)n(C)c1N	10 µM [rising, single point]
Cc1c(O)ccc2c3c(c(=O)oc12)CCC(C)C3 (stereo not given)	2.51 µM [rising, full curve]
COc1ccc(C(=O)NCc2cn3c(C)csc3n2)cc1OC	10 µM [rising, partial curve]
COc1ccc(OC)c2c(=S)c3ccccc3[nH]c12	15.8 µM [rising, partial curve]
CCOc1ccccc1NC1c2ccccc2C(=O)N1c1cccnc1 (stereo not given)	25.1 µM [falling, single point]
Cc1cc(NC(=O)CCN2C(=O)C3C4C=CC(C4)C3C2=O)c2ccccc2n1 (stereo not given)	1.26 µM [falling, full curve]
Cc1c2oc3c(C)ccc(C(=O)N[C@@H]4C(=O)N[C@@H](C(C)C)C(=O)N5CCC[C@@H]5C(=O)N(C)CC(=O)N(C)[C@@H](C(C)C)C(=O)O[C@H]4C)c3nc-2c(C(=O)N[C@@H]2C(=O)N[C@@H](C(C)C)C(=O)N3CCC[C@@H]3C(=O)N(C)CC(=O)N(C)[C@@H](C(C)C)C(=O)O[C@H]2C)c(N)c1=O (I: [aThr]V[dP][Sar][NMeV] / II: [aThr]V[dP][Sar][NMeV]; ester I:1-I:C, II:1-II:C; linker I:N-II:N via Actinocin(9to1))	0.1 µM [falling, full curve]
CCc1ccc(NC(=O)CSc2nnc(Cc3cccn3C)n2-c2ccc(OC)cc2)cc1	10 µM [falling, partial curve]
Cc1c(C(=O)O)[nH]c2c1C(=O)CC(c1ccccc1)C2 (stereo not given)	10 µM [rising, single point]
CCc1ccc(NC(=O)Cn2c(SC)nc3ccccc32)cc1	0.00398 µM [falling, full curve, poor fit]
